Percent effect of library compounds

Amino acid sequences for entries named in this document (tags omitted). Residues count along the entry.
UniProt P9WPC5, whole entry: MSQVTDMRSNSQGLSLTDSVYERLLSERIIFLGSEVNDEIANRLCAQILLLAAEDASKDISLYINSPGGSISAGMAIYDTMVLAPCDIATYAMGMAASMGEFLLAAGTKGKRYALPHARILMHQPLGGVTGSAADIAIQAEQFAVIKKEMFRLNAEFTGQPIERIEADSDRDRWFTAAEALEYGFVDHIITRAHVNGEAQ
UniProt P9WPC3, whole entry partner: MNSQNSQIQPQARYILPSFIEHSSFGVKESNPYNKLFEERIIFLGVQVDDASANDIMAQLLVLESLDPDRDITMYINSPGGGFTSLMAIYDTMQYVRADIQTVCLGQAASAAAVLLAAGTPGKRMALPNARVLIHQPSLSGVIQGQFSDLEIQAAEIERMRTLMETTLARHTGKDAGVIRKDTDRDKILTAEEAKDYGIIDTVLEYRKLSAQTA
UniProt P9WNZ1, whole entry: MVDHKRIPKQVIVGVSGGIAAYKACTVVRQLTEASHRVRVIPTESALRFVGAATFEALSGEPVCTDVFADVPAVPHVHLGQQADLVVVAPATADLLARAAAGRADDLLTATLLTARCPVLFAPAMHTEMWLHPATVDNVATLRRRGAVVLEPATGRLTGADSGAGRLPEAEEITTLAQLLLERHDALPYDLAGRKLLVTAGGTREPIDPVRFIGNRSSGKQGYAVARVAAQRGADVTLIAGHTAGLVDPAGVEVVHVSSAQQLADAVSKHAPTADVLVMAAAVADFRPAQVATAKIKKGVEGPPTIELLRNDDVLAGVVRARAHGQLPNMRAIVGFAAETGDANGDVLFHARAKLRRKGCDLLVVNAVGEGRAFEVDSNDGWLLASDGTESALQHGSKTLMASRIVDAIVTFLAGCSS
UniProt Q8IDJ8, 1-583: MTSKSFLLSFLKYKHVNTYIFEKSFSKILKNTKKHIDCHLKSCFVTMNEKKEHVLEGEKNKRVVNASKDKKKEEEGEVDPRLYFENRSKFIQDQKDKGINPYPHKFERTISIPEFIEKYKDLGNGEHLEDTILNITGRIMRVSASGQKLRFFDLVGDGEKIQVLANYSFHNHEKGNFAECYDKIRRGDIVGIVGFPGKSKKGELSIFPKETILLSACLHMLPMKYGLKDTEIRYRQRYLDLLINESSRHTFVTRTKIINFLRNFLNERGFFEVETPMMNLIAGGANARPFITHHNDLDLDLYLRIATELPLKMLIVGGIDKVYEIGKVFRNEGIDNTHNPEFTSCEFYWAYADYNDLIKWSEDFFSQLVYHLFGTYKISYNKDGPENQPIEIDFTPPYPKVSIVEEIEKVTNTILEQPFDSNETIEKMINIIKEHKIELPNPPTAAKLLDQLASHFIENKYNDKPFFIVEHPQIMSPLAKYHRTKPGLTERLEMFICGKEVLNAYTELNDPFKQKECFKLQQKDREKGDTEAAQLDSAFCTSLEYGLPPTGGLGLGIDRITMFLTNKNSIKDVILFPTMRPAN

The filed quantity is “Percent Effect” (%).
The record does not define 0% and 100%; most values in the screen are far below 50% and negative numbers occur (in some assays of this library far below -100).
The compounds are a random part of those screened.
A dash means the value is not listed here; it may have been measured.

ClpP1P2: 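Protease assay of ClpP1P2, read by the AMC dye that it sets free. Target: ClpP1P2, Mycobacterium tuberculosis (UniProt P9WPC5 and UniProt P9WPC3). Compounds at 50 µM. Higher reads as stronger inhibition, judged from the few compounds that gave an IC50. Most other retested compounds had strongly negative values. Of about 69,000 compounds tested this way, about 10 (0.015%) reached 50% or more in at least one test.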
CoaBC: 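Coenzyme A biosynthesis protein CoaBC, Mycobacterium tuberculosis (UniProt P9WNZ1). Enzyme assay of CoaBC with a phosphate dye (Biomol Green) read at 650 nm. Tested at 30 µM. Higher reads as stronger inhibition, judged from the few compounds that gave an IC50. Most strong results did not repeat in a second test. Of about 67,000 compounds tested this way, about 40 (0.06%) reached 50% or more in at least one test.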
PfKRS1: 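Lysine-tRNA ligase, Plasmodium falciparum 3D7 (UniProt Q8IDJ8). Enzyme assay of the cytosolic lysyl-tRNA synthetase in 384-well plates, read by luminescence. Concentration: 30 µM. Higher reads as stronger inhibition, judged from the few compounds that gave an IC50. About 69,000 compounds were tested under these conditions; 0.071% (about 49) showed 50% or more at least once.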

structure | ClpP1P2 | CoaBC | PfKRS1
CC(C)c1noc(CCNC(=O)NCC2Cc3ccccc3O2)n1 (centres undefined) | -6.064 | -1.347 | 3.238
Cc1nccn1CCC(=O)N1CCCN(c2ccccc2)CC1 | 5.357 | 4.208 | 2.812
Cn1cncc1-c1nnc([C@H]2CCN(C3CCOCC3)C2)o1 | -5.984 | -1.375 | 1.659
c1ncn(Cc2cn3c(n2)CN(CC2CCCCC2)CC3)n1 | -10.41 | -21.03 | 2.583
CC(NC(=O)NCCCO)c1ccc(-c2ccncc2)cc1 (centres undefined) | 4.325 | 3.571 | 3.881
CC(C)n1nnc(CC(=O)NCC2(c3ccccc3F)CCCC2)n1 | 11.84 | 3.679 | 0.1992
NCC1CCN(C2CCN(c3ccc(-c4ccco4)cc3)CC2)C1 (centres undefined) | -0.8344 | 18.18 | -0.1828
O=C(CC(F)(F)F)N1C[C@@H]2CC[C@H](C1)N(Cc1ccccc1)C2=O | 1.7 | 2.146 | 4.594
COC(=O)Cn1c(=O)nc2n1C(=O)N(c1cccc(Cl)c1)C2 | -16.34 | -2.043 | 0.4735
Cc1cc(C)cc(CN2C[C@H]3COC[C@H](N4CCN(C)CC4)[C@H]3C2)c1 | 0.6776 | 4.574 | 1.305
Cc1cccc2c1cnn2CCCNC(=O)C(C)C | -1.714 | -2.727 | -0.1094
Cc1c2nnn(CC(=O)N(C)C)c(=O)c2nn1C | 14.26 | 2.037 | 2.591
COc1ccccc1CN(C)Cc1ccnc(C2CCCO2)n1 (centres undefined) | -13.33 | -7.398 | 3.057
Cc1cccc(-c2ccc3nc(C4CCN(CC5CC5)CC4)nn3c2)c1 | -12.06 | -27.74 | 2.047
CN(Cc1cnn(C)c1)C(=O)CN1CCCCC1Cn1cncn1 (centres undefined) | 2.391 | 6.456 | 3.553
COCCN1CCO[C@@H]2CN(Cc3cc(OC)cc(OC)c3)C[C@@H]2C1 | -2.738 | - | -8.44
Cc1ccc(-c2nnc(CN3CCNC(=O)C3)o2)cc1 | 5.111 | 8.481 | 1.154
COC1CN(C(=O)COC(C)=O)CCC(=O)N(C)c2ccccc21 (centres undefined) | 4.033 | 0.2421 | 2.23
COc1cccc(-c2noc(C3CCN(Cc4ccccc4C)C3)n2)c1 (centres undefined) | 18.38 | 3.735 | 0.7075
Cc1ccc(C(=O)N2CCCC(n3cccn3)C2)cc1S(C)(=O)=O (centres undefined) | -14.28 | 1.316 | 1.72
CCn1nnnc1-c1cccc(NC(=O)CCc2cnn(C)c2)c1 | -5.588 | 7.171 | 5.094
COCCN1CCC2(CC1)CC(NC(=O)C(C)C)c1ccccc1O2 (centres undefined) | 7.303 | 1.673 | 5.197
CCCN1CCN(C(=O)CCn2nc(C(F)(F)F)c(Br)c2C)CC1 | 4.888 | -1.205 | 0.6178
COCCS(=O)(=O)Cc1nnnn1-c1ccccc1 | 5.504 | 4.747 | 7.661
CN(C)CCNC(=O)c1cc2n(n1)CCN(C(=O)c1ccc[nH]1)C2 | -20.81 | 2.788 | 3.197
CCN1C(=O)CC[C@@H]2N(C(=O)CCn3nccc3C)CCCC[C@@]21C | -22.65 | -1.699 | 0.06307
CC1(C)CN(CC(F)(F)F)CCN1CC(=O)N1CCCCC1 | -5.952 | 0.4902 | 1.914
CC(C)CC(=O)N1CC[C@@H]2CN(CC(=O)N(C)C)S(=O)(=O)[C@@H]2CC1 | 11.72 | 2.316 | -8.618
CCCC(NC(=O)c1ccccn1)c1nnc2ccccn12 (centres undefined) | -8.554 | 4.752 | 4.3
COc1ccc(-c2noc([C@@H](C)NC(=O)NC(C)(C)C)c2C(=O)O)cc1 | -6.957 | -3.753 | 2.043
COCCNC(=O)[C@H]1C[C@H]2OCC[C@H]2N(Cc2ccoc2)C1 | 1.562 | -1.523 | 0.9753
CC(C)C(C)(CNC(=O)OC(C)(C)C)NC(=O)c1cnccn1 (centres undefined) | 7.381 | 1.944 | 6.033
Cc1cc(C(=O)NCCC2CN(C)CCO2)c2cccc(C)c2n1 (centres undefined) | -0.4935 | -0.1272 | 0.6862
CSCC(C)(O)CNC(=O)Nc1cc(C)cc(C)c1 (centres undefined) | 2.688 | 1.903 | 0.3282
Cc1ccccc1CCCN(C)S(C)(=O)=O | -9.794 | 3.719 | 1.369
CCCc1nc(C)c(C(=O)NCCN2CCOCC2)s1 | -12.05 | -15.01 | -1.702
Cc1cccc(-c2nc(C)nn2CC(=O)NC2CCCC2)c1 | 7.112 | 1.446 | 2.377

Repeated from the top, 3 entries:

structure,ClpP1P2,CoaBC,PfKRS1
CC(C)c1noc(CCNC(=O)NCC2Cc3ccccc3O2)n1 (centres undefined),-6.064,-1.347,3.238
Cc1nccn1CCC(=O)N1CCCN(c2ccccc2)CC1,5.357,4.208,2.812
Cn1cncc1-c1nnc([C@H]2CCN(C3CCOCC3)C2)o1,-5.984,-1.375,1.659

The values are deposited in ChEMBL (CHEMBL3988442, “University of Dundee, Small-Polar-MMV Screening Library” (2021)).